{"source": "PubChem BioAssay (NCATS)", "key": {"[1]": {"biological_target": "Cytochrome P450 2D6 (Homo sapiens) (UniProt P10635)", "assay": "qHTS for inhibitors of CYP2D6 against the NCATS DSHEA and TCM libraries (AID 1919972); also: potency is read from the fitted curve at half-maximal effect", "method_in_brief": "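qHTS, concentration–response format with most substances from 19.5 nM. CYP2D6 + pro-luciferin substrate, 15 min with compound, then 1x NADPH regen, 30–45 min RT dark. Glo detection 30 min, luminescence. Quinidine control.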"}, "[2]": {"biological_target": "Cytochrome P450 1A2 (Homo sapiens) (UniProt P05177)", "assay": "qHTS for inhibitors of CYPIA2 against the NCATS DSHEA and TCM libraries (AID 1919976); also: potency is read from the fitted curve at half-maximal effect", "method_in_brief": "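Furafylline served as the plate control. Compounds met CYP1A2 and pro-luciferin substrate 15 min before NADPH regeneration solution (1x) was added; after 30-45 min at RT, P450-Glo reagent was added for 30 min and luminescence was measured.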"}, "[3]": {"biological_target": "Cytochrome P450 2C19 (Homo sapiens) (UniProt P33261)", "assay": "qHTS for inhibitors of CYP2C19 against the NCATS DSHEA and TCM libraries (AID 1919974); also: potency is read from the fitted curve at half-maximal effect", "method_in_brief": "(§1)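 Isoform-specific enzyme and substrate levels; enzyme-free wells as background. Reaction: 1x NADPH regenerating system, 30-45 min, room temperature, shielded from light; luminescent detection reagent added, 30 min.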"}, "[4]": {"biological_target": "Cytochrome P450 1A2 (Homo sapiens) (UniProt P05177)", "assay": "p450-cyp1a2 (AID 410; calls by dose curve)", "method_in_brief": "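Read-out is luminescence from luciferin produced by CYP1A2 demethylation of Luciferin-ME (100uM, at Km). Detection reagent stopped the 60 min NADPH-dependent reaction; signals were normalized to 57 uM furafylline.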"}, "[5]": {"assay": "qHTS Assay for Identification of Small Molecule Antagonists for Thrombopoietin (TPO) Signaling Pathway (AID 918)", "conditions": "TPO-dependent cell signaling reporter, antagonist mode; activity change, negative = inhibition: at 38.5 µM (top of the series)", "method_in_brief": "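Antagonist mode at EC50 TPO (26 pM) in IL-3-free medium; murine Ba/F3 cells with human TPO receptor and GPIIb-promoter luciferase, 24 hrs at 37 C before luminescent detection.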"}, "[6]": {"assay": "Validation screen for small molecules that induce DNA re-replication in MCF 10A normal breast cells (AID 463097)", "method_in_brief": "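DNA re-replication was detected as a rise in nuclei with elevated Hoechst fluorescence after a 48 hr compound exposure of MCF 10A cells at 37 C.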"}, "[7]": {"biological_target": "ATP-dependent 6-phosphofructokinase (Trypanosoma brucei brucei) (UniProt O15648)", "assay": "qHTS Validation Assay to Find Inhibitors of T. brucei phosphofructokinase (AID 485368)", "method_in_brief": "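PFK-generated ADP was measured after 45 min at room temperature using ADP-Glo. The reaction contained 0.5 mM F6P and 0.1 mM ATP.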"}, "[8]": {"assay": "Quantitative high throughput screen for delayed death inhibitors of the malarial parasite plastid, 96 hour incubation (AID 488745)", "method_in_brief": "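Two-generation (96 h) exposure of luciferase-reporter P. falciparum in erythrocytes, 2% hematocrit, 0.1% parasitemia final, 37 C, 5% CO2, RPMI 1640 with 0.5% Albumax. Growth inhibition scored by reduced luminescence.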"}, "[9]": {"biological_target": "Flap endonuclease 1 (Homo sapiens) (UniProt P39748)", "assay": "qHTS Validation Assay for the Inhibitors of Human Flap endonuclease 1 (FEN1) (AID 488816)", "conditions": "FEN1 nuclease activity, fluorogenic DNA substrate; at 57.1 µM (top of the series)", "method_in_brief": "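qHTS format: compounds and 10 nM FEN1 incubated 15 min at room temperature before adding 50 nM substrate. Cleavage followed by reads at 0 and 15 min; normalized data fitted to a four-parameter Hill curve.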"}, "[10]": {"biological_target": "M-phase phosphoprotein 8 (Homo sapiens) (UniProt Q99549)", "assay": "qHTS Validation Assay for Inhibitors for MPP8 Chromodomain Interactions with Methylated Histone Tails (AID 488949)", "method_in_brief": "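Disruption of the preformed MPP8–trimethyl-H3K9 peptide complex (both 50 nM, 30 min, RT) is measured after 30 min compound exposure, using AlphaScreen proximity beads; aurintricarboxylic acid titration serves as plate control.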"}, "[11]": {"biological_target": "Chromobox protein homolog 1 (Homo sapiens) (UniProt P83916)", "assay": "qHTS Validation Assay for Inhibitors of HP1-beta Chromodomain Interactions with Methylated Histone Tails (AID 488953)", "method_in_brief": "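Compounds pinned into a preassembled complex of HP1-beta and trimethyl-K9 histone H3(1-18) biotin peptide (50 nM each; PBS pH 7.4, 0.01% Tween-20). After 30 min, bead-based AlphaScreen detection followed.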"}, "[12]": {"biological_target": "Cytochrome P450 2C9 (Homo sapiens) (UniProt P11712)", "assay": "qHTS for inhibitors of CYP2C9 against the NCATS DSHEA and TCM libraries (AID 1919973)", "method_in_brief": "as §1"}, "[13]": {"biological_target": "Nuclear receptor subfamily 1 group I member 2 (Homo sapiens) (UniProt O75469)", "assay": "Dual reporter qHTS for agonist of Pregnane X Receptor (hPXR) against the NCATS DSHEA and TCM libraries: Luminescence readout (AID 1920059)", "method_in_brief": "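Luminescent PXR reporter read (ONE-Glo) after a CellTiter-Fluor viability read, following 24 h, 37C treatment of HepG2 cells stably carrying hPXR-Luc.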"}}, "note": "Inconclusive means that the source gave no clear call. Such entries were picked first, then a sample of the others. A call without a number means that no potency is given here. For some of these results: Potencies beside an inconclusive call are fits to weak or partial responses and may not hold up. Activity calls are given as the source filed them. Unless noted, calls follow the shape of the dose curve; as a rule, active = well fitted curve in the direction sought with a large enough effect; inconclusive = small, poorly fitted or top-dose-only effect, or another doubt; inactive = no such curve, though single readings can be large; an effect the other way counts as inactive or inconclusive.", "data": [{"smiles": "COc1ccc(C(=O)O)cc1", "values": [{"measurement": "Potency", "setting": "[1]", "value": "inactive"}, {"measurement": "Potency", "setting": "[2]", "value": "inactive"}]}, {"smiles": "CC1(C)C2CCC1(C)C(O)C2", "note": "(centres undefined)", "values": [{"measurement": "Potency", "setting": "[3]", "value": "inactive"}]}, {"smiles": "C[N+](C)(C)CCO", "values": [{"measurement": "Potency", "setting": "[4]", "value": "inactive"}, {"measurement": "activity change, negative = inhibition", "setting": "[5]", "value": "inconclusive: -3.65% [phenotype inactive]"}, {"measurement": "Potency", "setting": "[6]", "value": "inactive"}, {"measurement": "Potency", "setting": "[7]", "value": "inconclusive: 169 nM [falling, full curve, poor fit]"}, {"measurement": "Potency", "setting": "[8]", "value": "inactive"}, {"measurement": "activity, negative = inhibition", "setting": "[9]", "value": "inactive: -4.62%"}, {"measurement": "Potency", "setting": "[10]", "value": "inactive"}, {"measurement": "Potency", "setting": "[11]", "value": "inactive"}, {"measurement": "Potency", "setting": "[12]", "value": "inactive"}, {"measurement": "Potency", "setting": "[3]", "value": "inactive"}]}, {"smiles": "C=C[C@](C)(O)CCC=C(C)C", "values": [{"measurement": "Potency", "setting": "[12]", "value": "inconclusive: 28.2 µM [inhibitor, partial curve]"}, {"measurement": "Potency", "setting": "[2]", "value": "active: 3.55 µM"}, {"measurement": "Potency", "setting": "[13]", "value": "inconclusive: 7.08 µM [activator, full curve]"}]}, {"smiles": "O=C(O[C@@H]1Cc2c(O)cc(O)cc2O[C@@H]1c1ccc(O)c(O)c1)c1cc(O)c(O)c(O)c1", "values": [{"measurement": "Potency", "setting": "[1]", "value": "inconclusive: 17.8 µM [inhibitor, partial curve, poor fit]"}, {"measurement": "Potency", "setting": "[3]", "value": "inconclusive: 31.6 µM [inhibitor, single point]"}]}, {"smiles": "CC1=CCC(=C(C)C)CC1", "values": [{"measurement": "Potency", "setting": "[3]", "value": "inconclusive: 39.8 µM [inhibitor, partial curve, poor fit]"}]}]}
